Patent US20210364527A1
No constants are given. Whether binding was seen depends on the method and setting. Some binding calls cover weakened binding; strength is not graded here. For some of these results: Where a sequence is shown, tags or fusion partners need not be part of it.

Columns and labels:
[1] = target: T1, FITC-labeled RA peptide …-FITC; assay: fluorescence polarization, single point
T1 sequence (peptide, C-terminal FITC): RAKLDEESILKQK

[2] = target: T1, FITC-labeled RA peptide …-FITC; assay: single point fluorescence polarization, FITC-peptide with UBR-streptavidin complex
[3] = target: T2, FITC-labeled KA peptide …-FITC; assay: fluorescence polarization titration
T2 sequence (peptide, C-terminal FITC): KAKLDEESILKQK

B1: PS622 (protein)
chain: MHSRFNHAGRICASKFKVGEPIYRCKECSFDDTCVICVNCFNPKDHVGHHVYTSICSEFNNGICDCGDTEAWNHDMHCKADEN
binding [1]: binds

B2: PS629 (protein)
chain: MCPNYKHHGRPCARQFKQGEPIYRCYECGFDETCVMCMHCFNREQHRDHEVSISIASSSNDGICDCGDPQAWNIELHCQSELD
binding [1]: binds

B3: Kluyveromyces marxianus UBR1 (PS621) (protein)
chain: MHSKFSHAGRICGAKFKVGEPIYRCKECSFDDTCVLCVNCFNPKDHTGHHVYTTICTEFNNGICDCGDKEAWNHTLFCKAEEG
binding [2]: binds | binding [3]: binds
